Source: paper PMC12177104

Protein sequences, listed by entry. Tags and fused reporters are not part of them.
UniProt P00558: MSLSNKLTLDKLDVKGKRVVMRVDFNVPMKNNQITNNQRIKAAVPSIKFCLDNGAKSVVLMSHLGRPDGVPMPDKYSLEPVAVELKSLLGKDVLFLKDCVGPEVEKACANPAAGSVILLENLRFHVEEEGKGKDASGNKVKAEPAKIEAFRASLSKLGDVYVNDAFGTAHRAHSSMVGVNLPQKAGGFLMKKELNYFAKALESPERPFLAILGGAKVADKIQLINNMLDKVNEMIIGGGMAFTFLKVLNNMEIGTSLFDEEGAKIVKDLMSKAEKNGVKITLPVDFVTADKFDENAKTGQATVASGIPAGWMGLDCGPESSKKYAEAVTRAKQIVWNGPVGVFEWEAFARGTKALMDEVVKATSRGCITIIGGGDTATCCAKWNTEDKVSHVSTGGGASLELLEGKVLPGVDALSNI
UniProt P35579: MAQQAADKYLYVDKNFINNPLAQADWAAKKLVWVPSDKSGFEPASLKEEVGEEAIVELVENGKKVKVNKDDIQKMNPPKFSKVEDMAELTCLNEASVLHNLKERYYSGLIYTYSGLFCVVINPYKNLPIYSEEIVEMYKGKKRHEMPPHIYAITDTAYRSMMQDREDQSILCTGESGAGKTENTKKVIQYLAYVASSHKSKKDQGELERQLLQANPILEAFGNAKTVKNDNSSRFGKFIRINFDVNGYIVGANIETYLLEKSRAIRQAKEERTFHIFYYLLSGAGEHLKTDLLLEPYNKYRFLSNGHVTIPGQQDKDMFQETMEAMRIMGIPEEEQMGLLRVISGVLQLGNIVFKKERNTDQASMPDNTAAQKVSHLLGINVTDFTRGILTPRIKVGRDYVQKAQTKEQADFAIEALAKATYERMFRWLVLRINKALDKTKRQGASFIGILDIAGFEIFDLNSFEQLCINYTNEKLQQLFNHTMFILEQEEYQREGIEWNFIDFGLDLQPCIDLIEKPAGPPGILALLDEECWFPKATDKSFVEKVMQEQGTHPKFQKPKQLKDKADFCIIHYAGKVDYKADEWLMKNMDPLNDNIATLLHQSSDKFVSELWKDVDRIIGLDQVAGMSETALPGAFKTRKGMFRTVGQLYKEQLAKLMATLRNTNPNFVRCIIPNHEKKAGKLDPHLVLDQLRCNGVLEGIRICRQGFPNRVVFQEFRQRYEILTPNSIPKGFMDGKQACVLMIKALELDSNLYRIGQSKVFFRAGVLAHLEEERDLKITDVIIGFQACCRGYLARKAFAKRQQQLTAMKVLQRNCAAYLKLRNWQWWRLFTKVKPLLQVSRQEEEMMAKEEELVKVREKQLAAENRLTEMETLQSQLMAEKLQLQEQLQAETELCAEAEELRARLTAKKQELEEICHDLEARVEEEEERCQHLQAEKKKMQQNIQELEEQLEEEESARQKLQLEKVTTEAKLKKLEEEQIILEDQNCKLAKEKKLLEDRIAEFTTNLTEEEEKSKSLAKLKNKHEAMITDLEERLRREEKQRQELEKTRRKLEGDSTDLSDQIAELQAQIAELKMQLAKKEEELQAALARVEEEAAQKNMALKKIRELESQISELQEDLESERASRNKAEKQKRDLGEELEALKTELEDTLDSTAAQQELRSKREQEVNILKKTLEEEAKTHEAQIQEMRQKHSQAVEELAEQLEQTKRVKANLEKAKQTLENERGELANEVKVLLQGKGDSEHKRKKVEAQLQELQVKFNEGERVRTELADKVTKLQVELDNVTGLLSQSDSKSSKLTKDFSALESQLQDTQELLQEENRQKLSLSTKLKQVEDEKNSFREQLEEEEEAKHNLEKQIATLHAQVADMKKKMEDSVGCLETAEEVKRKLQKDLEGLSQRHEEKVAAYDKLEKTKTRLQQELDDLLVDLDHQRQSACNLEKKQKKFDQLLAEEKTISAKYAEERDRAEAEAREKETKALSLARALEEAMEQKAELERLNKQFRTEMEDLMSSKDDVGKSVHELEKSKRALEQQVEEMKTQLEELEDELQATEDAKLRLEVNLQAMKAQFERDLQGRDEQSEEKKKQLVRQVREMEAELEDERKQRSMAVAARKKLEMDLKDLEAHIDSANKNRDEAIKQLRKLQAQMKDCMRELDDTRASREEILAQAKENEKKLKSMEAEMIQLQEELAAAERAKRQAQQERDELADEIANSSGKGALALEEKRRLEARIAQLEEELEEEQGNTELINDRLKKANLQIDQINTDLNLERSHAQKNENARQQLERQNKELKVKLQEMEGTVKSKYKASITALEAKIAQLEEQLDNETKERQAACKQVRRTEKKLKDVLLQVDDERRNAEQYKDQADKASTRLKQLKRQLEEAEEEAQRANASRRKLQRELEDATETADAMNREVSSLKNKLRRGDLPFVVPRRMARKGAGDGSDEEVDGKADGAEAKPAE

Molecular target: Phosphoglycerate kinase 1 (PGK1) (UniProt P00558)
Assay: affinity purification with mass spectrometry; co-immunoprecipitation of PGK1 from KYSE150 ESCC cells followed by mass spectrometry; hits ranked by protein score

binding: binds
Substance: myosin-9 (MYH9), heavy chain of non-muscle myosin IIA (from UniProt P35579 1-1960)

These are yes or no findings as the source states them, for the method shown. In cells and extracts the contact can be indirect. Here binding means that the protein was enriched with, or labelled near, the bait; the list need not be complete.
